Reference: PMC5454536
Results are given in words; binding and its absence hold for the method and conditions named. Some binding calls cover weakened binding; strength is not graded here.

Target: T1, signal recognition particle (SRP): SRP protein Ffh with the 4.5S SRP RNA (E. coli) (UniProt P0AGD7)
T1 sequence: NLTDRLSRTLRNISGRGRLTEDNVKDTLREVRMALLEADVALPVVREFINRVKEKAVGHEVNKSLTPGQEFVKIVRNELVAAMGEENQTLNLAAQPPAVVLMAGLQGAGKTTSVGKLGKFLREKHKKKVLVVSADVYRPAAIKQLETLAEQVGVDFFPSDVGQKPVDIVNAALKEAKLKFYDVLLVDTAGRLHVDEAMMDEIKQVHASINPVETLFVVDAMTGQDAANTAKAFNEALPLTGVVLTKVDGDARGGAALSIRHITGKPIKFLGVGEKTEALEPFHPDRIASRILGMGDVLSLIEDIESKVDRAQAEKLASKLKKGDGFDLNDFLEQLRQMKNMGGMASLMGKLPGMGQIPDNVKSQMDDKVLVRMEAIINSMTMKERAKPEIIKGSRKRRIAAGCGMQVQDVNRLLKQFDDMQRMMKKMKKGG
Test: cryo-EM structure; RNC_(1A9L)-85 or -135 (250 nM) with SRP, SR and SecYEG, GDP:AlFx, Buffer C (50 mM HEPES-KOH, 85 mM KOAc, 15 mM Mg(OAc)2, 0.02% DDM, 5 mM spermidine, 0.5 mM spermine); both purified

B1: SRP receptor (SR), FtsY (receptor, UniProt P10121 1-497)
chain: MAKEKKRGFFSWLGFGQKEQTPEKETEVQNEQPVVEEIVQAQEPVKASEQAVEEQPQAHTEAEAETFAADVVEVTEQVAESEKAQPEAEVVAQPEPVVEETPEPVAIEREELPLPEDVNAEAVSPEEWQAEAETVEIVEAAEEEAAKEEITDEELETALAAEAAEEAVMVVPPAEEEQPVEEIAQEQEKPTKEGFFARLKRSLLKTKENLGSGFISLFRGKKIDDDLFEELEEQLLIADVGVETTRKIITNLTEGASRKQLRDAEALYGLLKEEMGEILAKVDEPLNVEGKAPFVILMVGVNGVGKTTTIGKLARQFEQQGKSVMLAAGDTFRAAAVEQLQVWGQRNNIPVIAQHTGADSASVIFDAIQAAKARNIDVLIADTAGRLQNKSHLMEELKKIVRVMKKLDVEAPHEVMLTIDASTGQNAVSQAKLFHEAVGLTGITLTKLDGTAKGGVIFSVADQFGIPIRYIGVGERIEDLRPFKADDFIEALFARED
binding: binds
